Source: the supplement of paper PMC7752906
Where a name gives a salt, the structure may show the parent alone. This is one part of the list. Repeats in this data set agree poorly, so a single value says little.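 Wells held roughly 40 S. mansoni schistosomula, imaged in bright field over time against wells given 0.1% DMSO. The paper defines hits as drugs with a Mahalanobis distance of at least 2.47, three standard deviations above the DMSO control mean. Degeneracy is the proportion of worms classified as opaque.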 Numbered stars: 1 amine (or outer) side, 2 acyl side, 3 side chain; on linkers, the order of the positions; unused ones are H or OH. Bridge positions count the residues as written; N and C are the ends. Square brackets hold non-standard residues; d marks the D form. Peptide text beside a SMILES is read from it. I, II: the chains in the order shown. * marks the point of attachment. ξ: configuration not given here. Actinocin(9to1) = Cc1c2oc3c(C)ccc(C(=O)[*:1])c3nc-2c(C(=O)[*:2])c(N)c1=O; X2 = N=C1NCCC([C@H](N[*:1])C(=O)[*:2])N1; ΔAla(Z-3-ureido) = NC(=O)N/C=C(\N)C(=O)O; NMeV = CN[C@H](C(=O)O)C(C)C; ξβ3hOrn = NCCCC(N)CC(=O)*; Dap = NC[C@H](N)C(=O)O; Sar = CNCC(=O)O

These compounds were tested on Schistosoma mansoni schistosomula (assay: degeneracy (percent of somules classified as degenerate/opaque); higher = more parasite degeneration/death; extreme values may be limits of the assay). Conditions: 10 µM; 72 h.
`Cc1cn([C@H]2C[C@H](N=[N+]=[N-])[C@@H](CO)O2)c(=O)[nH]c1=O` [Zidovudine [azt]] gave a degeneracy of 0%. Compound `O=C(O)CCCC[C@@H]1CCSS1` [Thioctic Acid] has a degeneracy of 9.68%. Compound `CCNC(=O)[C@@H]1CCCN1C(=O)[C@H](CCCNC(=N)N)NC(=O)[C@H](CC(C)C)NC(=O)[C@@H](CC(C)C)NC(=O)[C@H](Cc1ccc(O)cc1)NC(=O)[C@H](CO)NC(=O)[C@H](Cc1c[nH]c2ccccc12)NC(=O)[C@H](Cc1c[nH]cn1)NC(=O)[C@@H]1CCC(=O)N1` [Leuprolide] has a degeneracy of 12.1%. Compound `COc1cc(NS(=O)(=O)c2ccc(N)cc2)nc(OC)n1` [Sulfadimethoxine] has a degeneracy of 6.25%. Compound `CC[N+](CC)(CC(=O)Nc1c(C)cccc1C)Cc1ccccc1` [Denatonium Benzoate] has a degeneracy of 12.5%. For `CC1(C)O[C@@H]2[C@@H](CO[C@@]3(COS(N)(=O)=O)OC(C)(C)O[C@@H]23)O1` [Topiramate], the degeneracy was 16.7%. For `CC(C)Cn1cnc2c(N)nc3ccccc3c21` [Imiquimod], the degeneracy was 10.5%. In the case of `CC(=O)OCC(=O)[C@@]1(O)[C@H](OC(C)=O)C[C@H]2[C@@H]3CCC4=CC(=O)C=C[C@]4(C)[C@@]3(F)[C@@H](O)C[C@@]21C` [Triamcinolone Diacetate], the degeneracy is reported as 3.45%. `CCCC(=O)O[C@]1(C(=O)CO)CC[C@H]2[C@@H]3CCC4=CC(=O)CC[C@]4(C)[C@H]3[C@@H](O)C[C@@]21C` [Hydrocortisone Butyrate] was tested, and the degeneracy was 3.57%. With `CC1(C)S[C@@H]2[C@H](NC(=O)COc3ccccc3)C(=O)N2[C@H]1C(=O)O` [Penicillin V Potassium] the degeneracy was 4.35%. With `O=c1[nH]c(=O)n([C@H]2C[C@H](O)[C@@H](CO)O2)cc1C(F)(F)F` [Trifluridine] the degeneracy was 5%. `CC(C)NC(=N)NC(=N)Nc1ccc(Cl)cc1` [Proguanil; Chlorguanide Hydrochloride] gave a degeneracy of 4.35%. `CN(Cc1ccc(C(C)(C)C)cc1)Cc1cccc2ccccc12` [Butenafine] was tested, and the degeneracy was 0%. For `CCCCCCCCNC(C)C(O)c1ccc(SC(C)C)cc1` (centres undefined) [suloctidil], the degeneracy was 100%. Compound `C[C@H]1O[C@@H](O[C@H]2[C@@H](O)C[C@H](O[C@H]3[C@@H](O)C[C@H](O[C@H]4CC[C@@]5(C)[C@H](CC[C@@H]6[C@@H]5CC[C@]5(C)[C@@H](C7=CC(=O)OC7)CC[C@]65O)C4)O[C@@H]3C)O[C@@H]2C)C[C@H](O)[C@@H]1O` [digitoxin] has a degeneracy of 100%. `Cc1c(C)c2c(c(C)c1O)CCC(C)(CCCC(C)CCCC(C)CCCC(C)C)O2` (stereo not drawn) [Alpha-tochopherol] showed a degeneracy of 0%. `CC(=O)O[C@]1(C(C)=O)CC[C@H]2[C@@H]3C=C(C)C4=CC(=O)CC[C@]4(C)[C@H]3CC[C@@]21C` [Megestrol Acetate] gave a degeneracy of 11.9%. For `Nc1nnc(-c2cccc(Cl)c2Cl)c(N)n1` [Lamotrigine], the degeneracy was 2.63%. For `Clc1cc(Cl)c(OCC#CI)cc1Cl` [Haloprogin], the degeneracy was 100%. `Cc1ccc(C(C)C)c(O)c1` [Thymol] was tested, and the degeneracy was 12.5%. `CC1=C(C(=O)O)N2C(=O)[C@@H](NC(=O)[C@H](N)c3ccccc3)[C@H]2SC1` [Cephalexin] gave a degeneracy of 0%. Work on `CC[C@H](C)C(=O)O[C@H]1C[C@H](O)C=C2C=C[C@H](C)[C@H](CC[C@@H](O)C[C@@H](O)CC(=O)O)[C@H]21` [Pravastatin] yielded a degeneracy of 15.8%. `CC[C@H](C)C(=O)O[C@H]1C[C@H](O)C=C2C=C[C@H](C)[C@H](CC[C@@H](O)C[C@@H](O)CC(=O)O)[C@H]21` [Pravastatin Sodium] showed a degeneracy of 5.26%. With `COc1ccc2cc3[n+](cc2c1OC)CCc1cc2c(cc1-3)OCO2` [Berberine Chloride] the degeneracy was 7.69%. `O=C(c1cccnc1)N1CCOCC1` [Nicopholine] was tested, and the degeneracy was 7.32%. Compound `Cc1nccn1CC1CCc2c(c3ccccc3n2C)C1=O` (centres undefined) [Ondansetron] has a degeneracy of 10.7%. For `NC(=O)c1cc[n+](CC2=C(C(=O)[O-])N3C(=O)[C@@H](NC(=O)Cc4cccs4)[C@H]3SC2)cc1` [Cefalonium], the degeneracy was 0%. With `O=C1C(O)=C(O)C(=O)C(O)=C1O` [Tetroquinone] the degeneracy was 7.27%. `Cc1c2oc3c(C)ccc(C(=O)N[C@@H]4C(=O)N[C@H](C(C)C)C(=O)N5CCC[C@H]5C(=O)N(C)CC(=O)N(C)[C@@H](C(C)C)C(=O)O[C@@H]4C)c3nc-2c(C(=O)N[C@@H]2C(=O)N[C@H](C(C)C)C(=O)N3CCC[C@H]3C(=O)N(C)CC(=O)N(C)[C@@H](C(C)C)C(=O)O[C@@H]2C)c(N)c1=O` [Dactinomycin] (I: T[dV]P[Sar][NMeV] / II: T[dV]P[Sar][NMeV]; ester I:1-I:C, II:1-II:C; linker I:N-II:N via Actinocin(9to1)) was tested, and the degeneracy was 100%. For `COCCCOc1cc(C[C@@H](C[C@H](N)[C@@H](O)C[C@H](C(=O)NCC(C)(C)C(N)=O)C(C)C)C(C)C)ccc1OC` [Aliskiren Hemifumarate], the degeneracy was 5.41%. Work on `CCCCOC(=O)c1ccc(O)cc1` [Butylparaben] yielded a degeneracy of 100%. Work on `CC(=O)/N=c1/sc(S(N)(=O)=O)nn1C` [Methazolamide] yielded a degeneracy of 8.33%. `CC1=CC(=O)c2ccccc2C1=O` [menadione] showed a degeneracy of 100%. With `CCCCC1C(=O)N(c2ccccc2)N(c2ccccc2)C1=O` [Phenylbutazone] the degeneracy was 8.33%. In the case of `Cc1ccc(C(=O)C(C)CN2CCCCC2)cc1` (centres undefined) [tolperisone], the degeneracy is reported as 100%. `O=C(CCCCC(=O)Nc1c(I)cc(I)c(C(=O)O)c1I)Nc1c(I)cc(I)c(C(=O)O)c1I` [iodipamide] showed a degeneracy of 10%. With `O=C(O)Cc1cc(I)c(Oc2ccc(O)c(I)c2)c(I)c1` [Tiratricol] the degeneracy was 10.3%. Work on `C=COCC(F)(F)F` [Fluroxene] yielded a degeneracy of 2.44%. In the case of `CC(=O)OCC(=O)[C@@]12OC3(CCCC3)O[C@@H]1C[C@H]1[C@@H]3CCC4=CC(=O)C=C[C@]4(C)[C@@]3(F)[C@@H](O)C[C@@]12C` [Amcinonide], the degeneracy is reported as 4%. In the case of `N=C(N)c1ccc(N=NNc2ccc(C(=N)N)cc2)cc1` [Diminazene Aceturate], the degeneracy is reported as 14.3%. With `CC#CCC(C)[C@H](O)/C=C/[C@@H]1[C@H]2C/C(=C/CCCC(=O)O)C[C@H]2C[C@H]1O` (some centres undefined) [Iloprost] the degeneracy was 3.33%. With `CN1[C@@H]2CC[C@H]1C[C@@H](OC(c1ccccc1)c1ccccc1)C2` [Benztropine] the degeneracy was 10%. For `CCOc1nc2cccc(C(=O)OCc3oc(=O)oc3C)c2n1Cc1ccc(-c2ccccc2-c2noc(=O)[nH]2)cc1` [Azilsartan Kamedoxomil], the degeneracy was 10.5%. `C1CCC(C(CC2CCCCN2)C2CCCCC2)CC1` (centres undefined) [perhexiline] showed a degeneracy of 100%. With `CC(=O)[C@@]1(O)CC[C@H]2[C@@H]3C[C@H](C)C4=CC(=O)C=C[C@]4(C)[C@@]3(F)[C@@H](O)C[C@@]21C` [Fluorometholone] the degeneracy was 3.03%. `CCc1nc(N)nc(N)c1-c1ccc(Cl)cc1` [Pyrimethamine] gave a degeneracy of 13.5%. With `COc1cc(C(=O)NCc2ccc(OCCN(C)C)cc2)cc(OC)c1OC` [Trimethobenzamide Hydrochloride] the degeneracy was 3.03%. Work on `Clc1ccc(C(Cn2ccnc2)OCc2ccsc2Cl)c(Cl)c1` (centres undefined) [Tioconazole] yielded a degeneracy of 100%. With `O=C1/C(=C/c2cccs2)CCC/C1=C\c1cccs1` [tenylidone] the degeneracy was 22.2%. With `C[C@H]1c2cccc(O)c2C(=O)C2=C(O)[C@]3(O)C(=O)C(C(N)=O)=C(O)[C@@H](N(C)C)[C@@H]3[C@@H](O)[C@@H]21` [Doxycycline] the degeneracy was 7.69%. For `O=C(O)C(=O)O.[NH-][C@@H]1CCCC[C@H]1[NH-].[Pt+2]` [Oxaliplatin], the degeneracy was 10.7%. `CCOC(=O)COc1ccc2c(=O)cc(-c3ccccc3)oc2c1` [Efloxate] showed a degeneracy of 18.8%. Work on `C#Cc1cccc(Nc2ncnc3cc(OCCOC)c(OCCOC)cc23)c1` [Erlotinib] yielded a degeneracy of 3.23%. `Cc1onc(-c2ccccc2Cl)c1C(=O)N[C@@H]1C(=O)N2[C@@H]1SC(C)(C)[C@@H]2C(=O)O` [Cloxacillin] showed a degeneracy of 9.09%. `CC(C)Nc1cccnc1N1CCN(C(=O)c2cc3cc(NS(C)(=O)=O)ccc3[nH]2)CC1` [Delavirdine Mesylate] showed a degeneracy of 15.4%. Work on `CN[C@@H]1[C@H](O)[C@H](NC)[C@H]2O[C@@]3(O)C(=O)C[C@@H](C)O[C@H]3O[C@@H]2[C@H]1O` [Spectinomycin] yielded a degeneracy of 8.7%. `NS(=O)(=O)c1cc2c(cc1Cl)NC(C(Cl)Cl)NS2(=O)=O` (centres undefined) [Trichlormethiazide] showed a degeneracy of 9.68%. Work on `CC(=O)NC(Cc1ccccc1)C(=O)O` (centres undefined) [Afalanine] yielded a degeneracy of 100%. `CCCCCCOC(=O)NC(=N)c1ccc(NCc2nc3cc(C(=O)N(CCC(=O)OCC)c4ccccn4)ccc3n2C)cc1` [Dabigatran Etexilate Mesylate] was tested, and the degeneracy was 2.86%. `NCCCC(=O)O` [Gaba, Gamma-aminobutyric Acid] showed a degeneracy of 5%. Work on `CC12CCC(CC1=O)C2(C)C` [D-camphor] yielded a degeneracy of 17.9%. Compound `C[C@@H]1NC(=O)[C@@H](N)CNC(=O)[C@H](C2CCNC(=N)N2)NC(=O)/C(=C/NC(N)=O)NC(=O)[C@H](CNC(=O)CC(N)CCCN)NC1=O.N=C1NCC[C@H]([C@@H]2NC(=O)/C(=C/NC(N)=O)NC(=O)[C@H](CNC(=O)C[C@@H](N)CCCN)NC(=O)[C@H](CO)NC(=O)[C@@H](N)CNC2=O)N1` [Capreomycin Sulfate] (H-[Dap]S[Dap](ξβ3hOrn)[ΔAla(Z-3-ureido)][X2]; lactam 1-C) has a degeneracy of 2.94%. With `CN[C@@H]1[C@@H](O[C@H]2O[C@H](CO)[C@@H](N)[C@H](O)[C@H]2O)OC2C[C@@H](N)[C@@H](O[C@H]3[C@H](O)[C@@H](O)[C@H](N)C[C@@H]3N)OC2[C@@H]1O` (some centres undefined) [Apramycin Sulfate] the degeneracy was 6.9%. `O=C(N[C@H](CO)[C@H](O)c1ccc([N+](=O)[O-])cc1)C(Cl)Cl` [Chloramphenicol] was tested, and the degeneracy was 0%.
